Measured values published in patent US20030091584A1.
No constants are given. Whether binding was seen depends on the method and setting. Some binding calls cover weakened binding; strength is not graded here.

Substrate: F protein of RSV A/Long MARM with K272Q (respiratory syncytial virus strain A/Long) (UniProt P12568)
Experiment: IFA on HEp-2 cells infected with MARM B9

B1: A4B4 (monoclonal antibody) (antibody, V domains shown)
VH: QVTLRESGPALVKPTQTLTLTCTFSGFSLSTAGMSVGWIRQPPGKALEWLADIWWDDKKHYNPSLKDRLTISKDTSKNQVVLKVTNMDPADTATYYCARDMIFNFYFDVWGQGTTVTVSS
VL: DIQMTQSPSTLSASVGDRVTITCSASSRVGYMHWYQQKPGKAPKLLIYDTFFLDSGVPSRFSGSGSGTEFTLTISSLQPDDFATYYCFQGSGYPFTFGGGTKLEIK
- binding: binds
